Test results: the supplement of paper PMC11732987, “Enantioselective OTUD7B fragment discovery through chemoproteomics screening and high-throughput optimisation” (Communications Chemistry, 2025)
This is one part of the list. The data scatter; read single values as rough.

Amino acid sequences for entries named in this document (tags omitted). A change or cut given only in a name is not applied to a line headed by its entry. Residues count along the entry.
UniProt Q9UKD1, 79-100: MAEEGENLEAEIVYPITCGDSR
UniProt Q17RS7, 612-638: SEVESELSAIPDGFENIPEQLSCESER
UniProt Q9HC44, 359-390: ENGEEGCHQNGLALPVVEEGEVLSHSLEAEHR
UniProt Q8IWJ2: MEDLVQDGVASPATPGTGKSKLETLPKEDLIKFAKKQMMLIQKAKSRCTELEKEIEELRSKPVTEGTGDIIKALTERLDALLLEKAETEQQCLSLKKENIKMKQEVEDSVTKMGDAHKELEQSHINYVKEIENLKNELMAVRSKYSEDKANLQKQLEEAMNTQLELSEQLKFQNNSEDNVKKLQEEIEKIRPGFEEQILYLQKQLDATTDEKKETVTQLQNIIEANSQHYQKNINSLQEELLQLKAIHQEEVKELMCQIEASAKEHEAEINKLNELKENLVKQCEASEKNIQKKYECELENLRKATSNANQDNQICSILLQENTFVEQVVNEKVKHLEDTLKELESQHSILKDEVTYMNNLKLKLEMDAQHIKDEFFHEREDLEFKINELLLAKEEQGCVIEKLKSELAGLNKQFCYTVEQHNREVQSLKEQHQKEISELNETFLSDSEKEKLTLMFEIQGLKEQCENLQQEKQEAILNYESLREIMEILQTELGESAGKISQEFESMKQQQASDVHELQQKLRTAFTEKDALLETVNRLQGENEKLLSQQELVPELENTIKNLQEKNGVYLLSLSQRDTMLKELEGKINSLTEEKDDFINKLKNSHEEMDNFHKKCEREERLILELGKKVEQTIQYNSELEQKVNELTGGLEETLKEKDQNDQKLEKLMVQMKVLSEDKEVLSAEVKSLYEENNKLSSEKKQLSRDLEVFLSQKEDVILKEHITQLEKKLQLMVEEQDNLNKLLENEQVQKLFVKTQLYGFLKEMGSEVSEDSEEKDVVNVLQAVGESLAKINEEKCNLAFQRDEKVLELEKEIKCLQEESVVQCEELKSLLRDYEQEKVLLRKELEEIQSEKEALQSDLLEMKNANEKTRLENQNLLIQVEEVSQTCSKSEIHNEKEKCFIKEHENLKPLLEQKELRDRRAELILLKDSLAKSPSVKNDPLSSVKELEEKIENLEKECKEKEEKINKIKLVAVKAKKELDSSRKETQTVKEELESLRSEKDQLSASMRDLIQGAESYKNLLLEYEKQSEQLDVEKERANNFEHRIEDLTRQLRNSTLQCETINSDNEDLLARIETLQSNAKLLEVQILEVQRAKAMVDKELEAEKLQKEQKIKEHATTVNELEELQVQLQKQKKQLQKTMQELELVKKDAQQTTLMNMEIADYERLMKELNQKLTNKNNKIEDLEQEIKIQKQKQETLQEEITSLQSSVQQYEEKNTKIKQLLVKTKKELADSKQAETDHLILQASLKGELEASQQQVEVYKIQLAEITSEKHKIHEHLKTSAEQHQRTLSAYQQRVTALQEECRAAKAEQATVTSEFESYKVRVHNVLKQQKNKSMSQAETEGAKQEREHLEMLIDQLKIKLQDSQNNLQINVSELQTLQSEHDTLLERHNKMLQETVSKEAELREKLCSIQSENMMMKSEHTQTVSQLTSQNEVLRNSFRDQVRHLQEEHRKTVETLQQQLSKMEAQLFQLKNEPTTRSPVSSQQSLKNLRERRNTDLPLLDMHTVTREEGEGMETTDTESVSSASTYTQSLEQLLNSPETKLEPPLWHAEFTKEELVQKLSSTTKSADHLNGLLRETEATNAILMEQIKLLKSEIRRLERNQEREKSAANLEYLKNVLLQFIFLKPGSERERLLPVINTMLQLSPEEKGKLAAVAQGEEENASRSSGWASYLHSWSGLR
UniProt P16278, 420-442: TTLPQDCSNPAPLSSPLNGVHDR
UniProt Q14691: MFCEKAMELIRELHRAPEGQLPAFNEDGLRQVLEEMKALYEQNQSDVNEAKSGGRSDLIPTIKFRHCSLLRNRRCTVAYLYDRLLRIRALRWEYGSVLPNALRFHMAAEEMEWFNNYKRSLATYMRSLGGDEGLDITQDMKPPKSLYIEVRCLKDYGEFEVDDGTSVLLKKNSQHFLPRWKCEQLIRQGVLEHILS
UniProt Q3T8J9: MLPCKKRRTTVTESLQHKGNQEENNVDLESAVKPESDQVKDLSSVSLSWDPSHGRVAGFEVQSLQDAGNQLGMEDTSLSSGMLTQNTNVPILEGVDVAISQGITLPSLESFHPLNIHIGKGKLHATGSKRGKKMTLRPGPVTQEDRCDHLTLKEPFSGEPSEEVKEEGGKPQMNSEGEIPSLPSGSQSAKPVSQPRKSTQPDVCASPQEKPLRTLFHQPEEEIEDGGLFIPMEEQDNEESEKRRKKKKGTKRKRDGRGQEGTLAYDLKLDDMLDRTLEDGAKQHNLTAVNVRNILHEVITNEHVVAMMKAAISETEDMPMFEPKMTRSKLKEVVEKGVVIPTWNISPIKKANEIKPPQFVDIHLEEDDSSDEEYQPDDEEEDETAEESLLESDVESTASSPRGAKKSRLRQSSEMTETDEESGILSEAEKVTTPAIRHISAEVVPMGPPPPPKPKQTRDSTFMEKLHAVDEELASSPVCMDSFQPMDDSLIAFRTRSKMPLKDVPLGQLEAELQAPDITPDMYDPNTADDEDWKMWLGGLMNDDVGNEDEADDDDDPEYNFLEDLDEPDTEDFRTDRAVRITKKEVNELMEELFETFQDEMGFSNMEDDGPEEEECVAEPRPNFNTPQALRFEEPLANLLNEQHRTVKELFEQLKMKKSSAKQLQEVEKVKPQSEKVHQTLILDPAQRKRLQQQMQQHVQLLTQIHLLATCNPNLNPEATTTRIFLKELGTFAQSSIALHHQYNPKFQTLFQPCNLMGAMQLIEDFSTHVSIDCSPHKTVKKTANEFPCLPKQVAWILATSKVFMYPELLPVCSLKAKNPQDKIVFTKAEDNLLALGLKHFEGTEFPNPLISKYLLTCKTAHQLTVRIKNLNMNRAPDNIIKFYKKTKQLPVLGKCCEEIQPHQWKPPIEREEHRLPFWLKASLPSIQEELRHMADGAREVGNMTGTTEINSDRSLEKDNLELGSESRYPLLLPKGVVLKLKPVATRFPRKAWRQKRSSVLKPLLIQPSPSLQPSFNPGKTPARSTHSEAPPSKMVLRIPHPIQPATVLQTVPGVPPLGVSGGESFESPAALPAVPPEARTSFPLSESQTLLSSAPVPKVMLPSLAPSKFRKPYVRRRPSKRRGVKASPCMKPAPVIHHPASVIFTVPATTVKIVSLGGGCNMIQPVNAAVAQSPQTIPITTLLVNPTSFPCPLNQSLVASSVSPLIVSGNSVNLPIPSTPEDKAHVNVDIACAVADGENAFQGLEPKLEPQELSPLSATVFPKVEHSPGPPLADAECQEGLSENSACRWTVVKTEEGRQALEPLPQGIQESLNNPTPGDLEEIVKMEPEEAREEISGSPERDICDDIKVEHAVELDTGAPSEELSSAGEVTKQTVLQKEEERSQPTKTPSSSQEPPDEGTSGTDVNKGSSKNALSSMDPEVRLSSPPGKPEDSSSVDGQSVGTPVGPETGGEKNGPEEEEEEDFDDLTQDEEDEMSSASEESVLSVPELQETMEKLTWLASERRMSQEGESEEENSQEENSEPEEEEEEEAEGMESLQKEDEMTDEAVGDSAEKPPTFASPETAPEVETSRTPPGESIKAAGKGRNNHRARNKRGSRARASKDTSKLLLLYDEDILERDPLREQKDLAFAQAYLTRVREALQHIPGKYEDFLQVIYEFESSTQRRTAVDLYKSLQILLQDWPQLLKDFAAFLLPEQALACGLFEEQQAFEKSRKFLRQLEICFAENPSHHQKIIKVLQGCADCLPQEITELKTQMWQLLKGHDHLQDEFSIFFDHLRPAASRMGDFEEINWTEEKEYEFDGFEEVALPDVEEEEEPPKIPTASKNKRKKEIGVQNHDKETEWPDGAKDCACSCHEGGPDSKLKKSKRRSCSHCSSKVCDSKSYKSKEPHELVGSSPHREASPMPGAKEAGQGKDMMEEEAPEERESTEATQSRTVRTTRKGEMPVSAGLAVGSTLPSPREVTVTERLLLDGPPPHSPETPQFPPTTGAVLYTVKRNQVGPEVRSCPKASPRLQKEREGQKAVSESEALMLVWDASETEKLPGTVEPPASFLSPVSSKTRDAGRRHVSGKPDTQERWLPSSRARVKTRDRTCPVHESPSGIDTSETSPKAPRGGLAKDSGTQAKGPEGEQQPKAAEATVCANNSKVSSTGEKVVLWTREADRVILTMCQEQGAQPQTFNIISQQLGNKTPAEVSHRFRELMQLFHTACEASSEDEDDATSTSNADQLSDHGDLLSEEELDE
UniProt Q92538: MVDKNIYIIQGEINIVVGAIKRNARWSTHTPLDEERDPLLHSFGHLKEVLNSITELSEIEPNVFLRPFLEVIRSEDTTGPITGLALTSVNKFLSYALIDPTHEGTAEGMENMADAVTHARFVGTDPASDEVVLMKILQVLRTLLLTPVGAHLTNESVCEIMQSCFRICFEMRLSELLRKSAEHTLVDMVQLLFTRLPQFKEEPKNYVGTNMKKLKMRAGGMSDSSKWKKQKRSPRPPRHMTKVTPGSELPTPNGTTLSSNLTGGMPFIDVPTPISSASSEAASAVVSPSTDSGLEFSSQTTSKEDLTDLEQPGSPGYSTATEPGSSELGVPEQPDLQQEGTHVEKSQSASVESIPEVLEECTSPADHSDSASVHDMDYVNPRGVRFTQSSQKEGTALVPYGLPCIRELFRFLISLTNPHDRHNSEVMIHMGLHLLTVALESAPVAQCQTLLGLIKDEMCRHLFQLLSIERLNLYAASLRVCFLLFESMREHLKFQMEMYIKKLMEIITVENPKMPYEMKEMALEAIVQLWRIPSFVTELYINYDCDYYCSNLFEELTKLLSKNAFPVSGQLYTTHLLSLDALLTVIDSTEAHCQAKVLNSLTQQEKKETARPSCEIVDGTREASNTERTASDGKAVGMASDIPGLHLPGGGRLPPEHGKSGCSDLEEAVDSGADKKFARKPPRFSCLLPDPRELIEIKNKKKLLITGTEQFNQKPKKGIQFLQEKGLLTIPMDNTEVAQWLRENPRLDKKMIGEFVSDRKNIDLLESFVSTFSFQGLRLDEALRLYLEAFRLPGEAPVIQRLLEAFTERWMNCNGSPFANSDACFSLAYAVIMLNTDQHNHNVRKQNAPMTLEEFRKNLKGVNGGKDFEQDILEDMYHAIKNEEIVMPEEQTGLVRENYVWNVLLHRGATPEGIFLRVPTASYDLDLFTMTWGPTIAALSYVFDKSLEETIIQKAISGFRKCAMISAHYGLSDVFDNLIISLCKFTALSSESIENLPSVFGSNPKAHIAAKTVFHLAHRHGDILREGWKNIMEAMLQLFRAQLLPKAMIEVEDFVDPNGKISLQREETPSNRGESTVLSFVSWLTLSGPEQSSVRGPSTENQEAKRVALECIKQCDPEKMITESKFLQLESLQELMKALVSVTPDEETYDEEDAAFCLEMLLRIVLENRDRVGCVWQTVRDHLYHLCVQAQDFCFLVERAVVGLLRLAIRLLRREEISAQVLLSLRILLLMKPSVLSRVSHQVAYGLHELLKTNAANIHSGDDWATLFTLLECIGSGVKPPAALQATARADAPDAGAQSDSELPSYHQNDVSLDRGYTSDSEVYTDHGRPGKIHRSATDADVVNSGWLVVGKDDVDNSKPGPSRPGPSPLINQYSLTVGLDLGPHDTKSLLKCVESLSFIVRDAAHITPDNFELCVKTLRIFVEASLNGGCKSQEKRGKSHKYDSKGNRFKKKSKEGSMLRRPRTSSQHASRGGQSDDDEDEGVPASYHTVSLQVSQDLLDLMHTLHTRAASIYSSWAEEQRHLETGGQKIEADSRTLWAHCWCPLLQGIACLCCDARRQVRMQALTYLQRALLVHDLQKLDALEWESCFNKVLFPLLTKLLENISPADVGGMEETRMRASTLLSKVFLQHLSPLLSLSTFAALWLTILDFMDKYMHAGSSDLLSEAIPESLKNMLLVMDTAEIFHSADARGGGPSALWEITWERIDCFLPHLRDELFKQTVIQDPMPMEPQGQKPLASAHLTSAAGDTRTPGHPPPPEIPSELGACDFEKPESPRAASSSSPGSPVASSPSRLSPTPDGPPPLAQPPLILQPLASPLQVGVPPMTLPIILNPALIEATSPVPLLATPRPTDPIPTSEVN
UniProt Q9NXN4: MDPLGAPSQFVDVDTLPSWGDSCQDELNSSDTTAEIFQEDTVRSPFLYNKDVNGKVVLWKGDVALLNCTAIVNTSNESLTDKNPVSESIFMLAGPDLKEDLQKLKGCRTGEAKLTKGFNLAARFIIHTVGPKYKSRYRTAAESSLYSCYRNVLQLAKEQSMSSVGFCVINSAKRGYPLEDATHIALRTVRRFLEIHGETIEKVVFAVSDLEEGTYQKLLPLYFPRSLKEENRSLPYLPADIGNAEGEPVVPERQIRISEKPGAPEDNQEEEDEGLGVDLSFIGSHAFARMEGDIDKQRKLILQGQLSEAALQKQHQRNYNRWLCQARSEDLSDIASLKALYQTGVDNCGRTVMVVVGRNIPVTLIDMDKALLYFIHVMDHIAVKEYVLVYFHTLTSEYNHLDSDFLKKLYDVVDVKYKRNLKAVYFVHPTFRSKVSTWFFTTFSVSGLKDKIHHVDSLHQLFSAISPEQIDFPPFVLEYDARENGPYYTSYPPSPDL

What was measured:
[1] = compound: ClCC(=O)N[C@@H]1CCCc2ccccc12; test: log2 mean competition ratio of IA-DTB cysteine labelling (DMSO/compound) (log2 ratio); higher = stronger cysteine engagement by compound; settings: treatment time: 4 h, cell line lysate: HEK293T
Experimental: (§1)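 IA-DTB competitive cysteine chemoproteomics in HEK293T RIPA lysate. Lysates were treated with compound 29 or 30 at 50 or 200 µM for 4 h, then IA-DTB (500 µM, 1 h), trypsin-digested, NeutrAvidin-enriched and analysed by diaPASEF. Competition ratio = intensity DMSO / intensity compound (n=4 treated, n=64 DMSO); binding: mean log2 CR ≥ 1 and p ≤ 0.05 plus QC filters. Target is the cysteine site.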

[2] = compound: ClCC(=O)N[C@H]1CCCc2ccccc12; test: as above; settings: treatment time: 4 h, cell line lysate: HEK293T
Experimental: as §1

| Target | log2 mean competition ratio ([1]; 50 µM) | log2 mean competition ratio ([1]; 200 µM) | log2 mean competition ratio ([2]; 50 µM) | log2 mean competition ratio ([2]; 200 µM) |
| --- | --- | --- | --- | --- |
| GCN1 C1781 (UniProt Q92616) | 0.459 | -0.116 | -0.0163 | -0.401 |
| GLCCI1 C151 (UniProt Q86VQ1) | 0.0166 | 0.193 | -0.0761 | 0.246 |
| GMPR C186 (UniProt P36959) | -0.208 | -0.12 | -0.211 | 0.0141 |
| GPATCH2 C245 (UniProt Q9NW75) | -0.2 | 0.0484 | -0.0381 | 0.171 |
| GPRIN3 C515 | -0.00923 | 0.349 | -0.119 | 0.197 |
| GMEB2 C117 (UniProt Q9UKD1) | 0.549 | -0.0272 | -0.29 | 0.182 |
| GCAT C106 (UniProt O75600) | 0.57 | 0.17 | 0.629 | 0.165 |
| GLG1 C984 (UniProt Q92896) | -0.117 | 0.391 | 0.237 | 0.717 |
| GID8 C139 (UniProt Q9NWU2) | 0.04 | -0.0911 | 0.249 | 0.283 |
| GEN1 C634 (UniProt Q17RS7) | -0.388 | 0.185 | -0.243 | 0.125 |
| GPBP1L1 C365 (UniProt Q9HC44) | -0.191 | -0.169 | -0.242 | -0.2 |
| GOPC C408 (UniProt Q9HD26) | 0.543 | 0.219 | 0.767 | 0.313 |
| GPR50 C355 | -0.03 | -0.199 | 0.374 | -0.137 |
| GPC3 C65 | 0.374 | -0.29 | -0.227 | -0.252 |
| GINM1 C242 (UniProt Q9NU53) | -0.0812 | -0.171 | -0.181 | -0.0161 |
| GFER C95 (UniProt P55789) | -0.468 | 0.231 | -0.426 | 0.0265 |
| GNAI3 C66 (UniProt P08754) | -0.318 | 0.0039 | -0.341 | 0.0372 |
| GK;GK3P C67;(C67) | 0.271 | -0.515 | -0.0977 | -0.531 |
| GCC2 C399 (UniProt Q8IWJ2) | 0.175 | -0.201 | -0.245 | -0.318 |
| GSS C409 (UniProt P48637) | -0.11 | 0.364 | -0.274 | 0.0864 |
| GPATCH2 C59 (UniProt Q9NW75) | -0.191 | 0.0331 | -0.385 | 0.164 |
| GFPT2 C247 (UniProt O94808) | 0.235 | 0.112 | -0.292 | -0.128 |
| GCC2 C297 (UniProt Q8IWJ2) | -0.112 | 0.552 | -0.168 | 0.0781 |
| GLB1 C393 (UniProt P16278) | -0.185 | -0.0843 | -0.298 | -0.33 |

| Target | log2 mean competition ratio ([1]; 50 µM) | log2 mean competition ratio ([1]; 200 µM) | log2 mean competition ratio ([2]; 50 µM) | log2 mean competition ratio ([2]; 200 µM) |
| --- | --- | --- | --- | --- |
| GNL3L C490 (UniProt Q9NVN8) | 0.134 | 0.214 | 0.352 | 0.205 |
| GEN1 C766 (UniProt Q17RS7) | -0.313 | -0.321 | 0.0882 | -0.194 |
| GCN1 C1535 (UniProt Q92616) | -0.0188 | 0.251 | 0.0486 | 0.12 |
| GNAI1 C254 (UniProt P63096) | 0.133 | -0.181 | 0.193 | -0.168 |
| GINS1 C75 (UniProt Q14691) | 0.509 | 0.273 | 0.194 | 0.194 |
| GPATCH2L C274 (UniProt Q9NWQ4) | 0.0301 | 0.158 | 0.139 | 0.212 |
| GCLM C72 (UniProt P48507) | -0.344 | 0.0366 | -0.501 | 0.0352 |
| GPT2 C265 (UniProt Q8TD30) | 0.0385 | 0.215 | 0.238 | 0.00686 |
| GIT1 C674 (UniProt Q9Y2X7) | -0.0926 | 0.145 | -0.0578 | 0.114 |
| GMEB2 C96 (UniProt Q9UKD1) | 0.0817 | 0.415 | 0.258 | -0.231 |
| GPCPD1 C205 (UniProt Q9NPB8) | -0.282 | -0.274 | 0.0156 | 0.1 |
| GON4L C2092 (UniProt Q3T8J9) | 0.169 | -0.266 | -0.174 | -0.355 |
| GSK3A C281 (UniProt P49840) | 0.0226 | -0.137 | 0.248 | -0.101 |
| GBF1 C403 (UniProt Q92538) | 0.2 | 0.195 | 0.0364 | 0.627 |
| GNAZ C66 | -1.16 | 0.577 | 0.000578 | 0.211 |
| GGNBP2 C236 (UniProt Q9H3C7) | -0.158 | 0.0481 | -0.437 | 0.222 |
| GPC3 C349 | 0.524 | -0.0858 | 0.194 | -0.146 |
| GNPAT C66 (UniProt O15228) | 0.13 | -0.12 | -0.112 | -0.19 |
| GLB1 C426 (UniProt P16278) | -0.241 | -0.266 | -0.234 | -0.361 |
| GRK6 C71 (UniProt P43250) | 0.0637 | 0.0601 | -0.515 | 0.0285 |
| GPR180 C91 (UniProt Q86V85) | -0.0345 | -0.0425 | -0.071 | -0.0224 |
| GDAP2 C348 (UniProt Q9NXN4) | -0.0404 | 0.0733 | -0.146 | 0.0522 |
| GMPS C456 (UniProt P49915) | -0.527 | 0.11 | 0.363 | 0.405 |
| GRAMD1A C576 (UniProt Q96CP6) | -0.0921 | 0.037 | -0.3 | 0.0878 |

3 records picked at random from the list so far, as already listed:

| Target | log2 mean competition ratio ([1]; 50 µM) | log2 mean competition ratio ([1]; 200 µM) | log2 mean competition ratio ([2]; 50 µM) | log2 mean competition ratio ([2]; 200 µM) |
| --- | --- | --- | --- | --- |
| GPRIN3 C515 | -0.00923 | 0.349 | -0.119 | 0.197 |
| GLB1 C426 (UniProt P16278) | -0.241 | -0.266 | -0.234 | -0.361 |
| GCC2 C297 (UniProt Q8IWJ2) | -0.112 | 0.552 | -0.168 | 0.0781 |
